In PubChem BioAssay AID2718 (Broad Institute, 2010):
The whole screen tested about 320,000 compounds, of which about 480 (0.15%) were called active. The inconclusive results got no clear call from the source; some entries with a clear call stand among them for comparison. Rule as the data show it: active = inhibition above about 26% (passing the limit was not always enough); inconclusive = no clear call, values can overlap the other calls.

Amino acid sequences for entries named in this document (tags omitted).
UniProt O15379, whole entry, looked up: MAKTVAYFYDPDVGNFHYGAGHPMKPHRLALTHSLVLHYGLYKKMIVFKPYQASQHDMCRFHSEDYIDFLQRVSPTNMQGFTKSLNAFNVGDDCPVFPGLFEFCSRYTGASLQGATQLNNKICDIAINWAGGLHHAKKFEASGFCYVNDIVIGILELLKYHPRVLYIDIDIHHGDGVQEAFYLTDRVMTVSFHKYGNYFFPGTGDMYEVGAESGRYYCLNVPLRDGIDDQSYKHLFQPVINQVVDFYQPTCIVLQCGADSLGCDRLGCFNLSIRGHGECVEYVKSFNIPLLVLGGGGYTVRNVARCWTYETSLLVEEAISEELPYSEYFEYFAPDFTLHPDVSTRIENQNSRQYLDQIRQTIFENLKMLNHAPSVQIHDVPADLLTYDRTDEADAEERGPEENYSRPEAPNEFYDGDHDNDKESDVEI

biological target: Histone deacetylase 3 (Homo sapiens) (UniProt O15379); assay: HDAC3 deacetylase inhibitors, primary screen, biochemical, fluorescence, cell-free homogeneous (AID 2718); conditions: recombinant HDAC3, fluorogenic peptide/trypsin coupled, at 8.3 µM, hits give high values

| SMILES | inhibition |
| --- | --- |
| O=C(CN(c1ccc(Cl)c(C(F)(F)F)c1)S(=O)(=O)c1ccccc1)N/N=C/c1cccc2c1OCCO2 | inconclusive: 25.5% |
| O=C(Nc1cc(Cl)ccn1)C1(c2ccccc2)CC1(Cl)Cl (configuration not stated) | inconclusive: 19.1% |
| COc1cccc(OC)c1C(=O)Nc1ccc(C)cc1C(=O)c1ccccc1 | inactive: -1.61% |
| CC(=O)N1CCOc2ccc(S(=O)(=O)N3CCC(C(=O)Nc4ccc(F)cc4)CC3)cc21 | inconclusive: 19.7% |
| CCC(=O)c1ccc(OCC(=O)OCC(=O)N2c3ccccc3CC2C)cc1 (configuration not stated) | inactive: -4.24% |
| CC(NC(=O)c1ccco1)C(=O)N1CC=C(c2ccccc2)CC1 (configuration not stated) | inconclusive: 15% |
| COc1ccc(O)c(-c2cn[nH]c2-c2cccs2)c1 | inconclusive: 21% |
| CC(C)C(NS(=O)(=O)c1cccc2nsnc12)C(=O)NC1CCCCC1C (configuration not stated) | inconclusive: 14.9% |
| Cc1nc2ccccc2n1CC(=O)N/N=C\c1ccccn1 | inconclusive: 21.8% |
| CC(=O)N1CCN(C(=S)c2ccc([N+](=O)[O-])cc2)CC1 | inconclusive: 26.6% |
| CN(C)/C=C/c1oc2ccc(O)cc2c1[N+](=O)[O-] | inconclusive: 18.2% |
| CCOC(=O)C1CCN(c2ncnc3c2cnn3-c2ccccc2)CC1 | inconclusive: 20.9% |
| COc1ccccc1C(=O)OCC(=O)Nc1cc(S(=O)(=O)N2CCOCC2)ccc1N1CCCC1 | inactive: 3.06% |
| CCOc1ccccc1C1CC(=O)NC(SCC(=O)Nc2nccs2)=C1C#N (configuration not stated) | inconclusive: 15.8% |
| CCN(CC)C(=O)c1ccc2c(c1[N+](=O)[O-])C(=O)c1ccccc1C2=O | inactive: -6.48% |
| CC(C)(C)OC(=O)NCCCCCNC(=O)c1[nH]cnc1C(=O)N[C@@H](Cc1ccccc1)C(=O)OCc1ccccc1 | inconclusive: 24.2% |
| COc1ccc(C(=O)SC2=NCCS2)cc1OC | inconclusive: 44.6% |
| O=C(NCNC(=O)c1ccccc1)c1ccccc1 | inconclusive: 19.7% |
| COc1cc(C(=O)NCC(c2cccs2)N2CCOCC2)cc(Br)c1OCc1ccccc1 (configuration not stated) | inconclusive: 18.3% |
| CCCc1ccc(C(C)NC(=S)NC2CCCCC2)cc1 (configuration not stated) | inconclusive: 11.8% |
| COc1ccc(S(=O)(=O)Nc2ccc3c(c2)OCCO3)cc1OC | inactive: -0.213% |
| O=C(c1ccco1)N1C(=O)c2cccc3c(S(=O)(=O)N4CCCC4)ccc1c23 | inconclusive: 15.3% |

| SMILES | inhibition |
| --- | --- |
| O=C(Nc1ccc(S(=O)(=O)N2CCCCCC2)cc1)c1ccco1 | inactive: -7.84% |
| O=c1nccc(SCc2ccc(Cl)cc2Cl)[nH]1 | inconclusive: 25.7% |
| O=C(CNC(=O)C1CCCCC1)NC1CCCCC1 | inconclusive: 23.7% |
| CC1(C)Cc2c(C#N)c(N)sc(=S)c2CO1 | inactive: 7.3% |
| C[C@@H]1CN([C@H](C)CO)C(=O)c2cccc(NC(=O)NC3CCCCC3)c2O[C@@H]1CN(C)C(=O)Nc1ccc(C(F)(F)F)cc1 | active: 28.4% |
| CC1Cc2ccccc2C(=O)N1 (configuration not stated) | inconclusive: 17.1% |
| O=C(O)c1cc(S(=O)(=O)N2CCOCC2)ccc1N1CCOCC1 | inconclusive: 28.4% |
| CCN(CC(O)Cn1c2ccccc2c2ccccc21)S(=O)(=O)c1ccc(F)cc1 (configuration not stated) | active: 30.2% |
| Cc1cc(OCc2cc(C(=O)N(C)CC3CCOCC3)no2)cc(C)c1Cl | inconclusive: 14.8% |
| CC(=O)N1[C@@H]2CC3C4CC=C5C[C@@H](O)CC[C@]5(C)C4CC[C@]3(C)[C@@]21C(C)=O (some centres not stated) | inconclusive: 15.1% |
| Cc1cccc(C(=O)O)c1NC(=O)Cc1cccc2ccccc12 | inactive: 2.79% |
| COc1nc(N(C)C)nc(N(C)c2cc(Cl)cc(Cl)c2)n1 | inconclusive: 21.7% |
| Cc1ccc(C)c(-n2c(-c3ccncc3)n[nH]c2=S)c1 | inconclusive: 13.7% |
| COc1ccc(OC/C(O)=C(\C#N)c2nc3ccccc3[nH]2)cc1 | inactive: 0.193% |
| Cc1nc2sc(C(N)=O)c(N)c2c(C)c1CC(=O)c1ccccc1 | inconclusive: 19.9% |
| CCCC(=O)Nc1ccc(C(=O)n2nnc3ccccc32)cc1 | active: 75.2% |
| Cc1[nH]n(C2=NCCS2)c(=O)c1N=Nc1ccccc1 | active: 60.2% |
| CCOC(=O)CCN | inconclusive: 18.2% |
| Cc1nc(Oc2ccc(Cl)cc2)c2oc3ccccc3c2n1 | inconclusive: 16.4% |
| COC(=O)C1=C(C)NC(C)=C(C(=O)OC)C1c1ccc(-c2cccc([N+](=O)[O-])c2)o1 | active: 35% |
| O=C1c2ccccc2NC2(CCCCC2)N1c1ccc(O)cc1 | inactive: 2.17% |
| COc1ccc(S(=O)(=O)n2nc(OC(=O)c3cccs3)cc2N)cc1 | active: 95.3% |

| SMILES | inhibition |
| --- | --- |
| CCOc1cc(C(=O)NC2CC(C)(C)NC(C)(C)C2)cc(OCC)c1OCC | inactive: -8.06% |
| Cc1ccc(C)c(OCC(=O)N2CCc3ccccc3C2)c1 | inconclusive: 23.1% |
| NC(=O)c1ccc(OCC(F)(F)C(F)(F)C(F)(F)C(F)(F)C(F)(F)C(F)F)cc1 | active: 30.9% |
| Cc1ccc(NC(=O)Cn2nnc(-c3ccccc3-n3cnnn3)n2)c(C)c1 | inconclusive: 21.8% |
| CCOc1ccccc1N(CC(=O)NC1CCCCC1)S(=O)(=O)c1ccccc1 | inconclusive: 12.1% |
| CCOC(=O)Cc1csc(NC(=O)Cc2ccc(Br)cc2)n1 | inactive: 4.38% |
| CC(Oc1cccc(Br)c1)C(=O)NNC(=O)CCS(=O)(=O)c1ccccc1 (configuration not stated) | inactive: 0.287% |
| COc1ccc(C(CC(=O)N2CCCC(C)C2)c2c(OC)cc(OC)c3c(-c4ccccc4)cc(=O)oc23)cc1 (configuration not stated) | inconclusive: 21.3% |
| COCCCNC(=S)N(CCN(C)C)Cc1cc2cc3c(cc2[nH]c1=O)OCCO3 | active: 54.7% |
| Cc1ccsc1/C=N/n1c(-c2cc(-c3ccccc3)n[nH]2)n[nH]c1=S | inconclusive: 42.9% |
| CC(C)C[C@H](NC(=O)c1[nH]cnc1C(=O)N[C@@H](C)C(=O)OC(C)(C)C)C(=O)OC(C)(C)C | inconclusive: 25.1% |
| O=C(c1ccc(-c2ccccc2)cc1)c1ccccc1C(=O)N1CCOCC1 | inconclusive: 17.3% |
| CCOC(=O)c1ccc(NC(=O)c2nc[nH]c2C(=O)N[C@H](C)c2ccccc2)cc1 | inconclusive: 20.4% |
| Nc1ccccc1C(=O)NNC1=C(C(=O)C(F)(F)F)CCC1 | active: 45.9% |
| Cn1c(SCC(=O)c2ccccc2F)nnc1C1CC1 | inconclusive: 25.7% |
| O=C(NNC(=O)c1csc(N2CCOCC2)n1)c1cccnc1 | inconclusive: 28.6% |
| COc1ccc(C(=O)N/C(=C\c2cn(S(=O)(=O)N(C)C)c3ccccc23)C(=O)NCCCN2CCOCC2)cc1 | inconclusive: 14.1% |
| N=C(N)c1ccc(OCCCCCOc2ccc(C(=N)N)cc2)cc1 | active: 61% |
| C[C@H](CO)N1C[C@H](C)[C@@H](CN(C)C(=O)Nc2ccc(C(F)(F)F)cc2)Oc2ccc(NC(=O)Nc3ccc(C(F)(F)F)cc3)cc2C1=O | active: 35.3% |
| COc1cccc(N2CCN(CC(=O)Nc3ccc(S(=O)(=O)N4CCCCCC4)cc3)CC2)c1 | inconclusive: 26.1% |
| Cc1nnc(SCc2cc(=O)oc3ccc4ccccc4c23)n1Cc1ccccc1 | inconclusive: 2.84% |
| NC1=NN=C(c2ccc3c(c2)OCCO3)CS1 | active: 49.5% |

| SMILES | inhibition |
| --- | --- |
| Cc1ccc(NS(=O)(=O)c2ccc(-c3coc(C)n3)cc2)c(C)c1 | inconclusive: 19.5% |
| C/C(=N\NC(=O)c1ccco1)c1ccc(C(=O)O)s1 | inconclusive: 12.4% |
| Cc1ccc(CNC(=O)c2cc3ccccc3oc2=O)cc1 | inconclusive: 7.94% |
| O=C(COc1ccccc1)NC(=S)Nc1cccc2cc(O)ccc12 | inactive: 5.66% |
| O=C(Cc1cnc2ncnn2c1)N1CCc2c([nH]c3ccccc23)C1c1ccccc1F (configuration not stated) | inconclusive: 18.5% |
| COc1ccc(S(=O)(=O)Nc2ccc(-c3ccc4nnc(C)n4n3)cc2)c(OC)c1 | inconclusive: 13.9% |
| COc1ccccc1CCC(=O)Nc1ccc(S(=O)(=O)Nc2cc(C)nc(C)n2)cc1 | inactive: -12.1% |
| O=C(CC1SC(N2CCCC2)=NC1=O)Nc1ccc(C(=O)Nc2ncccc2O)cc1 (configuration not stated) | active: 93.7% |
| COc1cccc(OC)c1-c1nn2c(-c3cc(-c4ccccc4)n[nH]3)nnc2s1 | inconclusive: 35% |
| O=C(NC1CCCC1)c1cc(-c2ccccc2)nc2ccccc12 | inactive: 5.92% |
| COc1cc2c(C(=O)N3CCN(c4ccccc4F)CC3)cn(C)c(=O)c2cc1OC | active: 44.5% |
| FC(F)(F)c1ccc(-c2csc(-c3ccno3)n2)cc1 | inconclusive: 32.8% |
| CC1CCC(NC(=O)Cn2cc3c(n2)CCCC3)CC1 (configuration not stated) | inconclusive: 13.7% |
| Cc1ccc(NC(=O)C2CCCN(C(=O)c3ccc(Cl)cc3)C2)cc1 (configuration not stated) | inconclusive: 17.2% |
| CCC1(C)Cc2c(sc3nc(SC)n(Cc4ccccc4)c(=O)c23)CO1 (configuration not stated) | inconclusive: 8.16% |
| COc1cccc(NC(=O)COC(=O)c2c3c(nc4ccccc24)CCC(C)C3)c1 (configuration not stated) | inconclusive: 19.7% |
| O=C(Oc1ccc([N+](=O)[O-])cc1)c1cccnc1 | active: 32% |
| Cc1ccccc1NC(=O)Cc1nc(COC(=O)COc2ccccc2C(C)C)cs1 | inconclusive: 24.4% |
| C=CCC[C@@H](Cc1ccc(F)cc1)C(=O)OC[C@H](Cc1c[nH]c2ccccc12)NC(=O)[C@H](CC=C)CC(=O)NCCO | active: 32% |
| COc1cc(-c2nc3ccccc3c(=O)n2N)cc(OC)c1OC | inactive: 6% |
| CCCCc1c(O)c2ccccc2[nH]c1=O | inactive: -5.76% |

Retrieved by structure from above (three):

| SMILES | inhibition |
| --- | --- |
| COc1cc(-c2nc3ccccc3c(=O)n2N)cc(OC)c1OC | inactive: 6% |
| COc1ccc(S(=O)(=O)Nc2ccc(-c3ccc4nnc(C)n4n3)cc2)c(OC)c1 | inconclusive: 13.9% |
| COc1cc2c(C(=O)N3CCN(c4ccccc4F)CC3)cn(C)c(=O)c2cc1OC | active: 44.5% |

A second format for 3 compounds above.
SMILES,inhibition
CCOc1ccccc1C1CC(=O)NC(SCC(=O)Nc2nccs2)=C1C#N (configuration not stated),inconclusive: 15.8%
COc1ccc(C(CC(=O)N2CCCC(C)C2)c2c(OC)cc(OC)c3c(-c4ccccc4)cc(=O)oc23)cc1 (configuration not stated),inconclusive: 21.3%
O=C(Oc1ccc([N+](=O)[O-])cc1)c1cccnc1,active: 32%
